Data as given in US20210188972A1 (A AND G PHARMACEUTICAL, published 2021).
Results are given in words; binding and its absence hold for the method and conditions named. Binding can be weak; no strength is given.

What was measured:
[1] = molecular target: PTGFRN on SCSC cells (hamster spindle cell sarcomatoid carcinoma) (hamster); assay: flow cytometry (RFI), SCSC cells, 33B7 at 5 µg/mL
[2] = molecular target: PTGFRN on SCSC cells (hamster spindle cell sarcomatoid carcinoma) (hamster); assay: flow cytometry, SCSC cells
[3] = molecular target: PTGFRN on SCSC cells (hamster spindle cell sarcomatoid carcinoma) (hamster); assay: flow cytometry, hamster spindle cell carcinoma cells
[4] = molecular target: PTGFRN on SCSC cells (hamster spindle cell sarcomatoid carcinoma) (hamster); assay: flow cytometry on cancer cells, 33B7 at 5 µg/mL with rabbit anti-mouse IgG and Alexa fluor 647 goat anti-rabbit IgG (Example 3)

Measured: binding

B1: 33B7 (antibody, V domains shown)
VH: DVQLQESGPGLVKPSQSLSLTCSVTGCSITSGYYWNWIRQFPGNKLEWMGYISHDGNNNYSPSLKNRISITRDTSKNQFFLKLNSVTTEDTATYYCARGFYYYGYFGYWGQGTTLTVSS
VL: DIVMSQSPSSLAVSVGEKVTMSCKSSQSLLYSTNQKNYLAWYQQKPGQSPKPLIYWASTRESGVPDRFTGSGSGTDFTLTISSVKAEDLAVYYCQQYYSYRTFGGGTKLEIKR
notes: Murine hybridoma monoclonal IgG (ATCC PTA-124281); also called AG02; AGO2
binds: all assays above
